In patent US5294605A, “Amphiphilic peptide compositions and analogues thereof” (The Scripps Research Institute, priority 1991, dated 1994):
Not every detail of the peptide structures is certain; ends, links or a residue may be inferred. Square brackets hold non-standard residues; d marks the D form. Peptide text beside a SMILES is read from it. Met(O) = CS(=O)CC[C@H](N)C(=O)O

test system: Staphylococcus epidermidis; assay: Antimicrobial assay in 96-well plates, LB medium (Example 2), MIC; type: cell-based; details: Table VI, methionine sulfoxide diastereomer fractions, 20 hours

In order of falling “Min. Inhibitory Concentration S. epidemidia” value:
1. CC(=O)N[C@@H](CC(C)C)C(=O)N[C@@H](CCCCN)C(=O)N[C@@H](CC(C)C)C(=O)N[C@@H](CC(C)C)C(=O)N[C@@H](CCCCN)C(=O)N[C@@H](CCCCN)C(=O)N[C@@H](CC(C)C)C(=O)N[C@@H](CC(C)C)C(=O)N[C@@H](CCCCN)C(=O)N[C@@H](CCCCN)C(=O)N[C@@H](CC[S+](C)[O-])C(=O)N[C@@H](CCCCN)C(=O)N[C@@H](CCCCN)C(=O)N[C@@H](CC(C)C)C(=O)N[C@@H](CC(C)C)C(=O)N[C@@H](CCCCN)C(=O)N[C@@H](CCCCN)C(=O)N[C@@H](CC(C)C)C(N)=O (single isomer, unassigned) [11 (SEQ ID NO: 15) 0/100]  5 µg/mL
2. CC(=O)N[C@@H](CC(C)C)C(=O)N[C@@H](CCCCN)C(=O)N[C@@H](CC(C)C)C(=O)N[C@@H](CC[S+](C)[O-])C(=O)N[C@@H](CCCCN)C(=O)N[C@@H](CCCCN)C(=O)N[C@@H](CC(C)C)C(=O)N[C@@H](CC(C)C)C(=O)N[C@@H](CCCCN)C(=O)N[C@@H](CCCCN)C(=O)N[C@@H](CC(C)C)C(=O)N[C@@H](CCCCN)C(=O)N[C@@H](CCCCN)C(=O)N[C@@H](CC(C)C)C(=O)N[C@@H](CC(C)C)C(=O)N[C@@H](CCCCN)C(=O)N[C@@H](CCCCN)C(=O)N[C@@H](CC(C)C)C(N)=O (single isomer, unassigned) [4 (SEQ ID NO: 8) 0/100]  5 µg/mL
3. CC(=O)N[C@@H](CC(C)C)C(=O)N[C@@H](CCCCN)C(=O)N[C@@H](CC(C)C)C(=O)N[C@@H](CC(C)C)C(=O)N[C@@H](CCCCN)C(=O)N[C@@H](CCCCN)C(=O)N[C@@H](CC[S+](C)[O-])C(=O)N[C@@H](CC(C)C)C(=O)N[C@@H](CCCCN)C(=O)N[C@@H](CCCCN)C(=O)N[C@@H](CC(C)C)C(=O)N[C@@H](CCCCN)C(=O)N[C@@H](CCCCN)C(=O)N[C@@H](CC(C)C)C(=O)N[C@@H](CC(C)C)C(=O)N[C@@H](CCCCN)C(=O)N[C@@H](CCCCN)C(=O)N[C@@H](CC(C)C)C(N)=O (some centres unmarked) [7 (SEQ ID NO: 11) 0/100] (Ac-LKLLKK[Met(O)]LKKLKKLLKKL-NH2)  5 µg/mL
4. CC(=O)N[C@@H](CC(C)C)C(=O)N[C@@H](CCCCN)C(=O)N[C@@H](CC(C)C)C(=O)N[C@@H](CC(C)C)C(=O)N[C@@H](CCCCN)C(=O)N[C@@H](CCCCN)C(=O)N[C@@H](CC(C)C)C(=O)N[C@@H](CC(C)C)C(=O)N[C@@H](CCCCN)C(=O)N[C@@H](CCCCN)C(=O)N[C@@H](CC[S+](C)[O-])C(=O)N[C@@H](CCCCN)C(=O)N[C@@H](CCCCN)C(=O)N[C@@H](CC(C)C)C(=O)N[C@@H](CC(C)C)C(=O)N[C@@H](CCCCN)C(=O)N[C@@H](CCCCN)C(=O)N[C@@H](CC(C)C)C(N)=O (single isomer, unassigned) [11 (SEQ ID NO: 15) 100/0]  2.5 µg/mL

With CC(=O)N[C@@H](CC(C)C)C(=O)N[C@@H](CCCCN)C(=O)N[C@@H](CC(C)C)C(=O)N[C@@H](CC[S+](C)[O-])C(=O)N[C@@H](CCCCN)C(=O)N[C@@H](CCCCN)C(=O)N[C@@H](CC(C)C)C(=O)N[C@@H](CC(C)C)C(=O)N[C@@H](CCCCN)C(=O)N[C@@H](CCCCN)C(=O)N[C@@H](CC(C)C)C(=O)N[C@@H](CCCCN)C(=O)N[C@@H](CCCCN)C(=O)N[C@@H](CC(C)C)C(=O)N[C@@H](CC(C)C)C(=O)N[C@@H](CCCCN)C(=O)N[C@@H](CCCCN)C(=O)N[C@@H](CC(C)C)C(N)=O (single isomer, unassigned) [4 (SEQ ID NO: 8) 100/0] the “Min. Inhibitory Concentration S. epidemidia” value was > 10 µg/mL.
